Measurements taken from US4704384A, “Aziridinyl quinone antitumor agents” (priority 1981, dated 1987).
Some entries share one result that the patent states for a list of compounds.

Test system: lymphoid leukemia L1210

Row | SMILES | activity in IP L1210
1 | CCSC1=C(SCC)C(=O)C(SCC)=C(SCC)C1=O [Compound 7] | only compound No. 9 was active
2 | CCOC(=O)NC1=C(Cl)C(=O)C(NC(=O)OCC)=C(Cl)C1=O [Compound 8] | only compound No. 9 was active
3 | CCOC=NC1=C(Cl)C(=O)C(N=COCC)=C(Cl)C1=O [Compound 22] | only compound No. 9 was active
